The DeepSol protein solubility set

Test: soluble on expression in E. coli; label from the status in PepcDB or PDB records

Sequence | soluble on expression in E. coli
AAGLPQFGSASALSTSPLASVALSAAAAAAAGKQIEGPEGCNLFIYHLPQEFTDTDLASTFLPFGNVISAKVFIDKQTSLSKCFGFVSFDNPDSAQVAIKAMNGFQVGTKRLKVQLKK | soluble
DFSIVGYSQDDLTSTERLIQLFNSWMLNHNKFYENVDEKLYRFEIFKDNLNYIDETNKKNNSYWLGLNEFADLSNDEFNEKYVGSLIDATIEQSYDEEFINEDIVNLPENVDWRKKGAVTPVRHQGSCGSCWAFSAVATVEGINKIRTGKLVELSEQELVDCERRSHGCKGGYPPYALEYVAKNGIHLRSKYPYKAKQGTCRAKQVGGPIVKTSGVGRVQPNNEGNLLNAIAKQPVSVVVESKGRPFQLYKGGIFEGPCGTKVDGAVTAVGYGKSGGKGYILIKNSWGTAWGEKGYIRIKRAPGNSPGVCGLYKSSYYPTKN | soluble
GPGSMSAVESGSKVLRMKESDAQKLLAMRCHIGTRNQSSAMKKYIYGRTAEGSHIIDVHMMWEKLILAARVIAAVENPKDVCVCSSRLYGTRAIYKFSQHVGTSFHGGRFIPGTFTNQIQKKFVQPRVLVVTDPRTDHQAIREASLVNIPVIALCDTDAPLEYVDIAIPCNNRGIKSIGMMYWLLAREVLRLRGTIVRSVPWEEKVDLFFYRDPNEAAEEKAAAAAAAPAAEAEEGFGWVERNDDNAWEA | soluble
LRLGDRVLVGGTKTGVVRYVGETDFAKGEWCGVELDEPLGKNDGAVAGTRYFQCPPKFGLFAPIHKVIRIG | soluble
MAETLPGSGDSGPGTASLGPGVAETGTRRLSELRVIDLRAELKKRNLDTGGNKSVLMERLKKAVKEEGQDPDEIGIELEATSKKSAKRCVKGLKMEEEGTEDNGLEDDSRDGQEDMEASLENLQNMGMMDMSVLDETEVANSSAPDFGEDGTDGLLDSFCDSKEYVAAQLRQLPAQPPEHAVDGEGFKNTLETSSLNFKVTPDIEESLLEPENEKILDILGETCKSEPVKEESSELEQPFAQDTSSVGPDRKLAEEEDLFDSAHPEEGDLDLASESTAHAQSSKADSLLAVVKREPAEQPGDGERTDCEPVGLEPAVEQSSAASELAEASSEELAEAPTEAPSPEARDSKEDGRKFDFDACNEVPPAPKESSTSEGADQKMSSFKEEKDIKPIIKDEKGRVGSGSGRNLWVSGLSSTTRATDLKNLFSKYGKVVGAKVVTNARSPGARCYGFVTMSTSDEATKCISHLHRTELHGRMISVEKAKNEPAGKKLSDRKECEVKKEKLSSVDRHHSVEIKIEKTVIKKEEM | not soluble
MAFISSGYNPEKPMANRITDIGPRKFDEFFPPVIAKNFGSWLYHEILEPGVLMHVAESGDKVYTVRVGAARLMSITHIREMCDIADKYCGGHLRFTTRNNVEFMVADEASLKALKEDLASRKFDGGSLKFPIGGTGAGVSNIVHTQGWVHCHTPATDASGPVKAIMDEVFEDFQSMRLPAPVRISLACCINMCGAVHCSDIGVVGIHRKPPMIDHEWTDQLCEIPLAVASCPTAAVRPTKLEIGDKKVNTIAIKNERCMYCGNCYTMCPALPISDGEGDGVVIMVGGKVSNRISMPKFSKVVVAYIPNEPPRWPSLTKTIKHIIEVYSANAYKYERLGEWAERIGWERFFSLTGLEFSHHLIDDFRDPAYYTWRQSTQFKFLEHHHHHH | not soluble
MDDNTATLTAIHQQQQSHNRFSNPLVCVGQLDHHSLLPEHSISSSLAPLTHNPYAFNYSIPLPPTDITTKLPKLELLSLDVKQEQDDNHLDTSSPTDSTGNGSTNGGKIQKPRRQRTHFTSHQLTELENWFSRNRYPDMACREEIAVWISLTEPRVRVWFKNRRAKWRKRERNYVIDNGQGTTKVTAQSLDPLGSLQNTFPQTLLQSSSSQLDDSAVTSSSFYGYGGAWQQNPYYSRNNQTTFNWQIKPQFQTIPMSPTTATSRFSTAANLAPLPTAQAAFSTSATSSNDKLKLMDGLSNSLSSSLGQPYQPCQYSGPL | not soluble
MDKISNIYNFDDPPPDKLSLELFIIEKKIGKGQFSEVFRAQCTWVDLHVALKKIQVFEMVDQKARQDCLKEIDLLKQLNHVNVIRYYASFIDNNQLNIVLELAEAGDMSRMIKHFKKGGRLIPEKTIWKYFVQLARALAHMHSKRIMHRDIKPANVFITGNGIVKLGDLGLGRFFSSKTTAAHSLVGTPYYMSPERIQESGYNFKSDLWSTGCLLYEMAALQSPFYGDKMNLYSLCKKIENCEYPPLPADIYSTQLRDLVSRCILPEASKRPETSEVLQVAEHMNNYFSPSGDQSTTPSTQF | not soluble
MDRNGMSDPYVKVYVLPERKQKFETRIIRNTLNPTYNETFQFSIPFNELHSKTLMLVVYDYDRLSKDDKMGQLSVPLESIDFGITTDIERPLQKPEKDDEKECRLGDICFSTRYRPATGTVTLTIMEARNLKKMDVGGSSDPYVKIYLHHGRKLLSKKKTSRKYKTLNPYYNESFQFKIEPHMIEKVHLIVSVWDYDKMSKNDFIGEVTLGSKHLNLPQITHACSEQWAEMMTSRRPVVQWHTLQERMEKEKKKDDD | not soluble
MEIHPGATIGRRFFIDHGMGIVIGETAEIGDDVTLYQGVTLGGTSWNKGKRHPTLENGVVVGAGAKVLGPFTVGAGAKIGSNAVVTKAVPAGATAVGIPGRIIVKSEDTEVEAKRKAMAEKIGFDAYGVSGDMPDPVARLEHHHHHH | not soluble
MGLLTFRDVAIEFSREEWEHLDSDQKLLYGDVMLENYGNLVSLGLAVSKPDLITFLEQRKEPWNVKSAETVAIQPDIFSHDTQGLLRKKLIEASFQKVILDGYGSCGPQNLNLRKEWESEGKIILW | not soluble
MGSDKIHHHHHHLVSLEQEVQEKYSQIQNQLQRRADLIPNLVETVKGYAAHEKEILEEIANARAKLIGAKTPQESAQADAELSSALSRLLAIAENYPNLKADANFRQLMDELAGTENRIAVARRDYNEAVKKYNTAIKKFPGVIFAKMFGFEEKQYFEAKPGAEEVPEVKF | soluble
MGSDKIHHHHHHMSVNGQSSAASQASEQREPNAPVEHSGIYTGQVRHRRFGEIPHAFGYRLYMMGLDLDELSAVTSRSWLFGQRWFNPIRFNEKDYLKNEPGSLKQRIAQKVAALGGSWQTENRVVMLAQCRCLGVYFSPINFYFCYDAQQVCRYMLAEVSNTPWNQRHYYLLSLEGEMKLKKAFHVSPFMAMEMTYHWRVSPPAAKALVHIENHQEAKVFDATLALDRQGITPANLLNTWVRIPAMTVKMLLGIYWQALKLFLKRVPFIAHPDADSAS | not soluble
MISVMQQMMNNSNMPPPFVKSSDSHETHDESPTSPFIKRSDSPATTSSAAAAAMQHNFWSTRAAQLQQSVSGSSGVSSGSSSSASNNLSRTQADNHSERGSDTASSPQVAPLPTSSGMSMPAAAAAGMYPFNAGRFPTEFNMMVNQSMYNDFYSNSLAASSWPYSYPQQYPFANYSMPSLDGNLNDGGQLEWTSSSHAMRKKRKPYTKAQTLELEKEFLYNTYVSKQKRWELAKYLHLTERQVKIWFQNRRMKDKKQKQRTSGDPTGMLMPPGLD | not soluble
MKDSLVLLGRVPAHPDSRCWFLAWNPAGTLLASCGGDRRIRIWGTEGDSWICKSVLSEGHQRTVRKVAWSPCGNYLASASFDATTCIWKKNQDDFECVTTLEGHENEVKSVAWAPSGNLLATCSRDKSVWVWEVDEEDEYECVSVLNSHTQDVKHVVWHPSQELLASASYDDTVKLYREEEDDWVCCATLEGHESTVWSLAFDPSGQRLASCSDDRTVRIWRQYLPGNEQGVACSGSDPSWKCICTLSGFHSRTIYDIAWCQLTGALATACGDDAIRVFQEDPNSDPQQPTFSLTAHLHQAHSQDVNCVAWNPKEPGLLASCSDDGEVAFWKYQRPEGLHHHHHH | soluble
MKEFKVTTGPLPGSEKIYVEGERFPFLRVPMRRIRMSDTILENGEREKNEDVVVYDTSGPYTDTSYEVNLHRGVPKIREQWIEDRGDTVRLEGLSSEYGRIRQSDASLEKLRYEHVCTRPRAAKDGCATQLYYARQGIVTPEMEFVAIRENQLIDQVRTRYRAEEGEPLGAVIPRKITPEFVRDEIAAGRAILPANINHPESEPMIIGRNFLVKINANIGNSPISSTIEEEVEKAVWAIRWGADTVMDLSTGDHIHETREWIIRNSPVPIGTVPLYQTLEKVQGDVTKLNWEIFRDTLIEQAEQGVDYFTIHAGLRWHHVPLTLRRLTGIVSRGGSIIANWCTTHKRESFIYEHFEEICQILARYDVAISLGDGLRPGCIHDANDAAQIAELKTLGELTEIAWKYNVQTIIEGPGHVPMHKIRENMEIQLEACHGAPFYTLGPLVSDVASGYDHITSAIGAAQIGWFGTAMLCYVTQKEHLGLPNREDVREGVVTYRLAAHAADLAKGHPTAYWRDYMMSKARFEFRWKDQFHLSLDPEKAIQFHDATLPDEGHKEAHFCSMCGEHFCSMRANKNFRKLLNEEAVSK | not soluble
MLNFQLVLLIGDFNLPHRAANISPKFRKLLVPNKMQHVLCTGNLCSRETFDYLRTLSSDVHIVRGEFDDETLKYPDTKVVTVGQFRIGVCHGHQIIPWGDQRMLELLARQLDVDILVTGNTYECSAVEKNGRFFVDPGSATGSFSVTKTEPTTPSFALLDVQADNVVTYLYRLIDDAVKVDRIIYKKSKTT | not soluble
MPDYRSKTSTQGRNMAGARALWRATGMKDEDFKKPIIAIANSFTQFVPGHVHLKDLGQLVAREIERAGGVAKEFNTIAVDDGIAMGHDGMLYSLPSREIIADAVEYMVNAHCADAIVCISNCDKITPGMLMAALRLNIPVIFVSGGPMEAGKTKLASHGLDLVDAMVIAADSTASDEKVAEYERSACPTCGSCSGMFTANSMNCLTEALGLALPGNGSTLATHSDREQLFLTAGRTIVELCKRYYGENDESVLPRSIANFKAFENAMMLDIAMGGSTNTILHLLAAAQEGEVAFDLRDIDRLSRKVPQLCKVAPNIQKYHMEDVHRAGGIFSILGSLARGGLLHTDLPTVHSRSMEEAIAKWDITQTDDEAVHTFFKAGPAGIPTQTAFSQSTRWETLDDDRENGCIRSFEHAYSQEGGLAVLYGNIALDGCVVKTAGVDESIHVFEGTAKIFESQDSAVRGILADEVKAGDIVIIRYEGPKGGPGMQEMLYPTSYLKSKGLGKACALLTDGRFSGGTSGLSIGHASPEAAAGGAIGLVRDGDKVLIDIPNRSINLLVSDEELAQRRVEQDKKGWKPAEVRPRKVTTALKAYALLATSADKGAVRNKAMLEGL | not soluble
MRISLQKCSKTACSVLSKRPILSPKKPKSEGEATSFIDYRRVRCQAGNGGNGMVSFFRGYRKPFGGPDGGDGGHGGHVVFRASRSSKDLSTVHSIVRAQNGEFGRSKSCHGKSADHKEVEVPLGTVFKADGNTIFELNNENDMFIAARGGVGGRGNQFYVSNEVRKPFKAEYGGEGEELIYDVEMRVMATAGLVGFPNAGKSSLLRAISRAKPKVASYPFTTLHPHIGVVFYEDFEQIAVADIPGLIEDSHLNKGLGISFLKHIERCESLWYVLDYSTGSLTDQYKMLRVELEGYQKGLGDRASTIVINKIDLSGKSPEEEAHHLSSLFPNLPVFPVSAQQRIGLEPLLEHLREQYDK | not soluble
MSMLRRPLTQLELCEDDIQWLTDQLNKRVLPAVIVPKCEMMDIDEMEPMDQSEPPRGITRRNLRSADRKNRDVPGPSTGECTRTSIAPNRCEMSFTEVQTLTSARTPVAAPTLTLSTPVNPVSSAEMLRVMPPRVGRRPRASRSGDNDSPLLFNAYDTPQQGINDESPTPSDSPESPNAHLYGATPGNPTSTSGGPSSNTRSHRH | not soluble
MTEYDKFAEQLRHPDNPIVFLEVTAGGAPIGTIVIELFADVTPRTAENFRQFCTGEYKKDGVPNGYKNCTFHRVIKDFMIQGGDFCNGDGTGLMSIYGSKFRDENFELKHIGPGMLSMANAGSDTNGCQFFITCAKTDFLDNKHVVFGRVLDGMLTVRKIENVPTGANNKPKLPIVVVQCGQL | not soluble
